This note sets out measurements from patent US20230049231A1 (priority 2019, published 2023).

Sequences of proteins named here, by UniProt entry; tags and fusion partners are left off.
UniProt P22001, whole entry: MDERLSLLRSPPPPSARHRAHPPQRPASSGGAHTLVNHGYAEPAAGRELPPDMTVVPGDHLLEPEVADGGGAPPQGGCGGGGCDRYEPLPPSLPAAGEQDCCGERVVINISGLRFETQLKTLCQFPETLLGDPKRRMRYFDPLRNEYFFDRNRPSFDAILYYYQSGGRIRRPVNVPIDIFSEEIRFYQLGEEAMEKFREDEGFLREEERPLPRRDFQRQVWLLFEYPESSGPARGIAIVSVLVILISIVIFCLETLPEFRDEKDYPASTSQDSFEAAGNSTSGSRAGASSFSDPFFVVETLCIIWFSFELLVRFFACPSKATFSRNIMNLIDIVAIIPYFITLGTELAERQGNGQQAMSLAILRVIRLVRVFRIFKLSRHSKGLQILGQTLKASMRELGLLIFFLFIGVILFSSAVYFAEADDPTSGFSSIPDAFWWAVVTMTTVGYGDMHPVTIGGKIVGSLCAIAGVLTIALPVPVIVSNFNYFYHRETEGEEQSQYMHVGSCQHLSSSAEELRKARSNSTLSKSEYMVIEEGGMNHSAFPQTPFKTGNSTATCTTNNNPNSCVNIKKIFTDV
UniProt Q12809, whole entry: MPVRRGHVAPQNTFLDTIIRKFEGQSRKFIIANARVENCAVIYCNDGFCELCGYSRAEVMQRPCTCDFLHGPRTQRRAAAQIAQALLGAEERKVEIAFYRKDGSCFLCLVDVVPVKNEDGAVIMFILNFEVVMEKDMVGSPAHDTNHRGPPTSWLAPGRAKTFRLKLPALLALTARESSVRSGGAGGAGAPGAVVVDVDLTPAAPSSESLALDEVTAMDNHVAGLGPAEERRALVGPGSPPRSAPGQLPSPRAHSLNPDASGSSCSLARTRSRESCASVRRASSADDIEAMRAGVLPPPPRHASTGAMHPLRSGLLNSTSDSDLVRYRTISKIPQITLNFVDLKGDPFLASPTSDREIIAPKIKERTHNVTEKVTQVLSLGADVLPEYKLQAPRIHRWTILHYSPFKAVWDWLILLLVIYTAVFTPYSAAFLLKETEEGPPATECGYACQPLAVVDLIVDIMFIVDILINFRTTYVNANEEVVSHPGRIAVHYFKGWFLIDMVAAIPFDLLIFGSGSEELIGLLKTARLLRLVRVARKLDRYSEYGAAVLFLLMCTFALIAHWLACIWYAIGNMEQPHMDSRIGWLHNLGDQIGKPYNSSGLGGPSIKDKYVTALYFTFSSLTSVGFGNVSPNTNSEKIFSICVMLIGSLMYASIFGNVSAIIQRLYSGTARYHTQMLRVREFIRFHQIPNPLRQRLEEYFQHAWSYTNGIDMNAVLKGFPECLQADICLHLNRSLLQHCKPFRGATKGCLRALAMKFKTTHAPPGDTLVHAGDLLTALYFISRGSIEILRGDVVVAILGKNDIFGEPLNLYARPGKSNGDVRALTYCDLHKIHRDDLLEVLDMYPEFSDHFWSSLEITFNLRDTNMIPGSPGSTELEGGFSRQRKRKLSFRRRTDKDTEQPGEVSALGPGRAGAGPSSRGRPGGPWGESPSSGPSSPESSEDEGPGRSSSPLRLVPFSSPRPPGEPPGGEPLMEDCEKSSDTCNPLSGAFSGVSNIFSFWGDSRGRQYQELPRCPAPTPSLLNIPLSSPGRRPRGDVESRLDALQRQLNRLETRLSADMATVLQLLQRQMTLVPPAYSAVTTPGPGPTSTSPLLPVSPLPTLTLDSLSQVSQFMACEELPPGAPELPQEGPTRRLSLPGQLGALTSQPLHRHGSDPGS

As a reminder, the IC50 is the concentration at which inhibition is half-maximal.

Data set [1] addresses Kv1.3 potassium channel (Homo sapiens, UniProt P22001). Put plainly: Kv1.3 potassium channel blocker activity, automated whole-cell patch clamp (Patchliner). Particulars: read-out: Kv1.3 IC50; CHO-K1 cells stably expressing Kv1.3; 100 ms pulses from -90 mV to +40 mV, 0.1 Hz. The method, then:
This assay is used to evaluate the disclosed compounds' activities as Kv1.3 potassium channel blockers.
CHO-K1 cells stably expressing Kv1.3 were grown in DMEM containing 10% heat-inactivated FBS, 1 mM sodium pyruvate, 2 mM L-glutamine and G418 (500 μg/ml). Cells were grown in culture flasks at 37° C. in a 5% CO2-humidified incubator.
(§1) The cells were bathed in an extracellular solution containing 140 mM NaCl, 4 mM KCl, 2 mM CaCl2), 1 mM MgCl2, 5 mM glucose, and 10 mM HEPES; pH adjusted to 7.4 with NaOH; 295-305 mOsm. The internal solution contained 50 mM KCl, 10 mM NaCl, 60 mM KF, 20 mM EGTA, and 10 mM HEPES; pH adjusted to 7.2 with KOH; 285 mOsm. All compounds were dissolved in DMSO at 30 mM. Compound stock solutions were freshly diluted with external solution to concentrations of 30 nM, 100 nM, 300 nM, 1 μM, 3 μM, 10 μM, 30 μM and 100 μM. The highest content of DMSO (0.3%) was present in 100 μM.
The currents were evoked by applying 100 ms depolarizing pulses from −90 mV (holding potential) to +40 mV were applied with 0.1 Hz frequency. Control (compound-free) and compound pulse trains for each compound concentration applied contained 20 pulses.
10-second breaks were used between pulse trains (see Table 2 below).
Whole-cell current recordings and compound application were enabled by means of an automated patch clamp platform Patchliner (Nanion Technologies GmbH). […]

Data set [2] addresses hERG channel (Homo sapiens, UniProt Q12809). Kind of data set: hERG electrophysiology, automated whole-cell patch clamp (Patchliner). Particulars: read-out: hERG IC50; CHO-K1 cells stably expressing hERG; +20 mV 300 ms, -50 mV 300 ms tail current, 0.3 Hz. The method, then: This assay is used to evaluate the disclosed compounds' inhibition activities against the hERG channel.
CHO-K1 cells stably expressing hERG were grown in Ham's F-12 Medium with glutamine containing 10% heat-inactivated FBS, 1% penicillin/streptomycin, hygromycin (100 μg/ml) and G418 (100 μg/ml). Cells were grown in culture flasks at 37° C. in a 5% CO2-humidified incubator.
as §1
The voltage protocol (see Table 3) was designed to simulate voltage changes during a cardiac action potential with a 300 ms depolarization to +20 mV (analogous to the plateau phase of the cardiac action potential), a repolarization for 300 ms to −50 mV (inducing a tail current) and a final step to the holding potential of −80 mV. The pulse frequency was 0.3 Hz. […]
(In general: hERG is a cardiac potassium channel; its block is linked to QT prolongation.)

The structures given here were assigned with low confidence; some may be wrong.

For `O=C([C@H]1CCCO1)N1CC(=O)N2C[C@@H](c3c(O)ccc(Cl)c3Cl)C[C@H]2C1`, the IC50 in data set [1] was less than 1000 nM; in data set [2], less than 30 µM.
